Reference: the supplement of paper PMC12823440, “Inhibitors supercharge kinase turnover through native proteolytic circuits” (Nature, 2025)
Structures can show the parent of a compound that is named as a salt. Some of the results follow. The calls rarely recur for the same compound in another form.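 Kinases, fused to nanoluciferase, were expressed in K562 cells; luminescence was measured every 4 h from 2 to 18 h as percent of control (DMSO = 100%, positive control = 0%). A time point is decreased if signal falls significantly (2 sigma). Hits were called by the authors by a rule that is not shown; the count of time points alone does not decide it.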

Sequences of proteins named here, by UniProt entry; tags and fusion partners are left off. A change or cut given only in a name is not applied to a line headed by its entry.
UniProt P42680: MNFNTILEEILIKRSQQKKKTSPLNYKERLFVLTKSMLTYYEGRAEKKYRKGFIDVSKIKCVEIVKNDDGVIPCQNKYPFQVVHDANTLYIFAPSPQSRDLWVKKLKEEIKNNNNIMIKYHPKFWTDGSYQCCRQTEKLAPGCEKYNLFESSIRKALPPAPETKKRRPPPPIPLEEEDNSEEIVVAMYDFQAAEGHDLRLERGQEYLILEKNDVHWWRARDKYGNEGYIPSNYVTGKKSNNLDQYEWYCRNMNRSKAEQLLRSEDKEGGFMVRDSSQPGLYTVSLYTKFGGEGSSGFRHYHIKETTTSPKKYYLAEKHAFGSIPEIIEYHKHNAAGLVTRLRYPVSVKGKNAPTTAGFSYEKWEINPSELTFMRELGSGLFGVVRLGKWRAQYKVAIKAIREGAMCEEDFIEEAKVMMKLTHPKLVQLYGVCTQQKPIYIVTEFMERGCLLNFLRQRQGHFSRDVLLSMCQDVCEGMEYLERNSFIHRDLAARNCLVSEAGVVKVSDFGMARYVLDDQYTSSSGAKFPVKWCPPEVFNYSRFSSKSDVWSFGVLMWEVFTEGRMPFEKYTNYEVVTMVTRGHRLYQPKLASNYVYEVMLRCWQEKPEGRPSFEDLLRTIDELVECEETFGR
UniProt P29597: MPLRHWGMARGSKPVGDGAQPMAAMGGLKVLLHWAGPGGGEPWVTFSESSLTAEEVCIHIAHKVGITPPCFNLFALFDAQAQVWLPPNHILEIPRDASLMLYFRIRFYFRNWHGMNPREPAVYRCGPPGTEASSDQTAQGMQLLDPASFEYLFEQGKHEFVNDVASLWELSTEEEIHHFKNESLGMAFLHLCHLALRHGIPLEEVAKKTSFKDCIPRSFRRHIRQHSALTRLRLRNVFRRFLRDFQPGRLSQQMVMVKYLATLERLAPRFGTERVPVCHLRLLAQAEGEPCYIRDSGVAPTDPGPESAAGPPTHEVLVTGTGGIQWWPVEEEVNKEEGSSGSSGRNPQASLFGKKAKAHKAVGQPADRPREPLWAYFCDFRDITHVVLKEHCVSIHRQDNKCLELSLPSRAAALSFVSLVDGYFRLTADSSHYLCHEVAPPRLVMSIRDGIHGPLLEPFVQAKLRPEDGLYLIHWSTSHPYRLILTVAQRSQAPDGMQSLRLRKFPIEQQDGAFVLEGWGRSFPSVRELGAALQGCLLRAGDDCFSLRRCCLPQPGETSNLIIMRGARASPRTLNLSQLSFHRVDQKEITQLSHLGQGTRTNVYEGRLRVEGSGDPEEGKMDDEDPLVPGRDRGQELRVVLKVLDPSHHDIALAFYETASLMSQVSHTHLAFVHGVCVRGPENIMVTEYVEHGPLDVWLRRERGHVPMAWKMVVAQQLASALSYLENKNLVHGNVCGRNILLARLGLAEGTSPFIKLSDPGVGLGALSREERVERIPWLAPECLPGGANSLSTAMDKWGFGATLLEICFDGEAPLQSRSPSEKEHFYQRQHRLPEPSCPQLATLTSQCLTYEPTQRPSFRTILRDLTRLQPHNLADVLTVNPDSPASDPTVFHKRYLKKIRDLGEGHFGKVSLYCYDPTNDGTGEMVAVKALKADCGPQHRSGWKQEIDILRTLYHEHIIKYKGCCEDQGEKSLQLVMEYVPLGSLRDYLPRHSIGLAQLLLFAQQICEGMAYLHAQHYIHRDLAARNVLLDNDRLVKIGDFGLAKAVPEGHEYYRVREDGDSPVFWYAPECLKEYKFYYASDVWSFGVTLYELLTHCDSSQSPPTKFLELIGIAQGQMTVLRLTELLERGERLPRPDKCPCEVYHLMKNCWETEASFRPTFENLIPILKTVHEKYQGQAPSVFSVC
UniProt P07947, whole entry, looked up: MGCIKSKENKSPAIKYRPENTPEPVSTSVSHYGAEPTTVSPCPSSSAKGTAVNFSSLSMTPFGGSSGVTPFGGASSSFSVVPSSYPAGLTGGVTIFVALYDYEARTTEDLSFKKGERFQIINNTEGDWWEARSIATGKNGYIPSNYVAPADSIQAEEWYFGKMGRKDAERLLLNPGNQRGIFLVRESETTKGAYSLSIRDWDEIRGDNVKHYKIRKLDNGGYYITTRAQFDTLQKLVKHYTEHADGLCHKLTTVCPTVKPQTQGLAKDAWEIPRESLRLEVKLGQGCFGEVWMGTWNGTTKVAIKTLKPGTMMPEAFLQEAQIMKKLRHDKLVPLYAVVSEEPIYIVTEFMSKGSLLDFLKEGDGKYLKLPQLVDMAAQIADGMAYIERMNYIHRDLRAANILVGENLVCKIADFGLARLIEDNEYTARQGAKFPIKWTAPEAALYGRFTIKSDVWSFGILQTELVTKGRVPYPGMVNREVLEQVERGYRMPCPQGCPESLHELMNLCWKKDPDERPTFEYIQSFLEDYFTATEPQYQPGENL
UniProt P43403: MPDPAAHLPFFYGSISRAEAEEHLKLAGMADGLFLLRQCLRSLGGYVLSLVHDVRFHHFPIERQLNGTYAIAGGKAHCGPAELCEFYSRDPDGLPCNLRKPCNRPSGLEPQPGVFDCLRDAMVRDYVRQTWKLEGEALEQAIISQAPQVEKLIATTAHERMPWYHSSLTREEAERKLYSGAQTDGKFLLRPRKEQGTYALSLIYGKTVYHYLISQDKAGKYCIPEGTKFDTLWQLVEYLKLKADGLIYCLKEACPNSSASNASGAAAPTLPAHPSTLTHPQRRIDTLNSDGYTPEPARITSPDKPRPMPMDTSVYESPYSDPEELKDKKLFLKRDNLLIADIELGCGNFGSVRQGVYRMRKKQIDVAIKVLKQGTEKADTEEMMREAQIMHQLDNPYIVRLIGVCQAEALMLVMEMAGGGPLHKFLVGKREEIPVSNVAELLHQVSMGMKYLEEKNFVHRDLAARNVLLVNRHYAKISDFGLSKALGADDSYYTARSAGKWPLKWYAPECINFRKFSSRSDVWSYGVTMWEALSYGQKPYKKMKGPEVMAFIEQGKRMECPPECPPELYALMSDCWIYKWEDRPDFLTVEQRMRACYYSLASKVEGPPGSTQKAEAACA
UniProt P00519, whole entry: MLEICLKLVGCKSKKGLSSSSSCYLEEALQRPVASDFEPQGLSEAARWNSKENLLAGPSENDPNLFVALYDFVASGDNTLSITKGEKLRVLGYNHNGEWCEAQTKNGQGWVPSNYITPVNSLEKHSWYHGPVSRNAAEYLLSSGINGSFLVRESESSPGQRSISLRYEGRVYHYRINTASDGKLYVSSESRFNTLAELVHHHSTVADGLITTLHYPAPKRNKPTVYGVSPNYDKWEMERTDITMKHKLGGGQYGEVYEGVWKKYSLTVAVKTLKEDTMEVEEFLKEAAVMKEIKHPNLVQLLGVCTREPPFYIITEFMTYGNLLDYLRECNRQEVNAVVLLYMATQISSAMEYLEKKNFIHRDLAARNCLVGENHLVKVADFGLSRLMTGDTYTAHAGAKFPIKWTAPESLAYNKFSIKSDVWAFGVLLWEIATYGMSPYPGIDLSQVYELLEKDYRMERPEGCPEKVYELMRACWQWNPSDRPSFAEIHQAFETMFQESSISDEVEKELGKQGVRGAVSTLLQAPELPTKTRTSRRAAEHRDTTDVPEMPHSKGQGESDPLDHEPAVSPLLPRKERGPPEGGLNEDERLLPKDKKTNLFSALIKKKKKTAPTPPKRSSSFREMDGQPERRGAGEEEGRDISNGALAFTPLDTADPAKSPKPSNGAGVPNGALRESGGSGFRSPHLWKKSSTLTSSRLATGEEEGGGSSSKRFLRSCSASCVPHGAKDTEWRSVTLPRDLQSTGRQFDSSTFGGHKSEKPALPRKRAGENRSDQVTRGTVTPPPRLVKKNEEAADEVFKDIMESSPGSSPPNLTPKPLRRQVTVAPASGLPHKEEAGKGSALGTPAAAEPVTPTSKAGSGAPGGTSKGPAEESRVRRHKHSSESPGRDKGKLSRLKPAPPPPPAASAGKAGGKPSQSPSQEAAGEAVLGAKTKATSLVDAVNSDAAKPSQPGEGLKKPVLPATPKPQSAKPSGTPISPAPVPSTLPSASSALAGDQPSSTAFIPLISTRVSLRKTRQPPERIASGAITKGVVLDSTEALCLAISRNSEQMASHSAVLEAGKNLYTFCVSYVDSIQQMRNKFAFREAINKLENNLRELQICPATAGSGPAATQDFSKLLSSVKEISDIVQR
UniProt P10398: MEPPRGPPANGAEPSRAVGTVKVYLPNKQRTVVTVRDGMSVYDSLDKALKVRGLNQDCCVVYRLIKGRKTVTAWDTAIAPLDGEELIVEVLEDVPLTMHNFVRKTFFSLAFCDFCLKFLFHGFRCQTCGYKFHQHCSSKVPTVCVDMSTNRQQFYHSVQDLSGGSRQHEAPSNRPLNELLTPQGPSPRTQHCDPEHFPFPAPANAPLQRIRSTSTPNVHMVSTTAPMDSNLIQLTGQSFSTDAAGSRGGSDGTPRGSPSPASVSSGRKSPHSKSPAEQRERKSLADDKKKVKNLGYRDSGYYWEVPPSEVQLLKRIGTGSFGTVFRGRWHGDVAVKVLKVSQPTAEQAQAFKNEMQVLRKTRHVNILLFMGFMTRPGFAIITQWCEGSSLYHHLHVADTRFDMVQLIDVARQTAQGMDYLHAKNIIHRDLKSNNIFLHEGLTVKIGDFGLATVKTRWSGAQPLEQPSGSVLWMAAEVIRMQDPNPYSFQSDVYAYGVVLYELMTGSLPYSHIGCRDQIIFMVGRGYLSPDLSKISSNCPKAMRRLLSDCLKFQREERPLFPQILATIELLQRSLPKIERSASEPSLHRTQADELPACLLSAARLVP
UniProt O14965: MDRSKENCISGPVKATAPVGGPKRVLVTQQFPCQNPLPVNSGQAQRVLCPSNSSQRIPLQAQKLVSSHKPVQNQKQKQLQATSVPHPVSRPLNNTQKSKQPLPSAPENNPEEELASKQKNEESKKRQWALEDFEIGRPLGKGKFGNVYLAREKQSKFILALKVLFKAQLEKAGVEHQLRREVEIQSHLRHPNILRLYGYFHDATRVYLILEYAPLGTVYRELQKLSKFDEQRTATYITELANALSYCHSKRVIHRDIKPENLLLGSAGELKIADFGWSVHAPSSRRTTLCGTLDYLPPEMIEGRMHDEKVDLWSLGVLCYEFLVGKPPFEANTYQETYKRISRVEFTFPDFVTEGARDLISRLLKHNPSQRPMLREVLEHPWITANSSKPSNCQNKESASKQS
UniProt Q96GD4, whole entry: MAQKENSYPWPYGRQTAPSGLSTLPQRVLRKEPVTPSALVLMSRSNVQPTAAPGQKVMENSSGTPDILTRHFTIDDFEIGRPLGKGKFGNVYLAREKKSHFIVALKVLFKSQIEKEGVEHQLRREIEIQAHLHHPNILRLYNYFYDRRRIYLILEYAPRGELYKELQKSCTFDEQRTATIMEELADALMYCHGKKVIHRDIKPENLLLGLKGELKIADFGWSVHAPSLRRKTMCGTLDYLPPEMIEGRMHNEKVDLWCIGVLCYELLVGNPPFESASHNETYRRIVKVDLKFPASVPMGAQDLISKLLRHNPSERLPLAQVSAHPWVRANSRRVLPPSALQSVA
UniProt Q9UQB9: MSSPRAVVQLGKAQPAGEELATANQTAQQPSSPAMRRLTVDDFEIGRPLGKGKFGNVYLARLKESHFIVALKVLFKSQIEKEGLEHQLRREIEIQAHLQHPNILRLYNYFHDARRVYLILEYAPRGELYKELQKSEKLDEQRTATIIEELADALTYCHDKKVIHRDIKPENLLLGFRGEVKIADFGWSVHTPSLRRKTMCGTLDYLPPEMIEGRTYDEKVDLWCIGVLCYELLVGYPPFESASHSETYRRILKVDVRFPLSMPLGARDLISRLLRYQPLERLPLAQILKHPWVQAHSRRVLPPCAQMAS
UniProt P51813: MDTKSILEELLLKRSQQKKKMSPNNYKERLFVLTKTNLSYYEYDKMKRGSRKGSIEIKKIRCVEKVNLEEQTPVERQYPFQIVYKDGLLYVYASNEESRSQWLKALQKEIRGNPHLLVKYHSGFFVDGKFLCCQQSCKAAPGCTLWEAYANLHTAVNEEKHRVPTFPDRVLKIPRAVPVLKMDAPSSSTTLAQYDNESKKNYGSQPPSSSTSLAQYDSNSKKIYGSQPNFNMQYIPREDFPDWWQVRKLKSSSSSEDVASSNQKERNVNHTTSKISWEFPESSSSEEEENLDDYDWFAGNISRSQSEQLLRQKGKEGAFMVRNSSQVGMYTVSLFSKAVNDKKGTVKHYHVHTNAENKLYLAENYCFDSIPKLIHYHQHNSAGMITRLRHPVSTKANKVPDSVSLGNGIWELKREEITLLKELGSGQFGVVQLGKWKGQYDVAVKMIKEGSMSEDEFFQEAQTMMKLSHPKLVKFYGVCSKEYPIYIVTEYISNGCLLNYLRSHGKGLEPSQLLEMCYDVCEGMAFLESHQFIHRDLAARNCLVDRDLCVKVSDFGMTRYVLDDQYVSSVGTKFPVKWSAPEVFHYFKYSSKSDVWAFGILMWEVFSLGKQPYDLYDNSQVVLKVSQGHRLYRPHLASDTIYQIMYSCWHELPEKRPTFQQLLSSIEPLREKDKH

What was measured:
Details in all cases: K562; 2-18 h
[1] = target: STK38 (UniProt Q15208); test: kinase-Nluc reporter destabilization hit call (1 = scored as downregulated) (binary); higher = compound decreases kinase abundance
[2] = target: SYK (UniProt P43405); test: as above
[3] = target: TEC (UniProt P42680); test: as above
[4] = target: TYK2 (UniProt P29597); test: as above
[5] = target: ULK3 (UniProt Q6PHR2); test: as above
[6] = target: YES1 (UniProt P07947); test: as above
[7] = target: ZAK (UniProt Q9NYL2); test: as above
[8] = target: ZAP70 (UniProt P43403); test: as above
[9] = target: ABL1 (UniProt P00519); test: number of time points (of 5) at which kinase-Nluc abundance scored as decreased, DMSO-normalised (count); higher = more persistent destabilization
[10] = target: AKT1 (UniProt P31749); test: as above
[11] = target: ALK (UniProt Q9UM73); test: as above
[12] = target: ARAF (UniProt P10398); test: as above
[13] = target: AURKA (UniProt O14965); test: as above
[14] = target: AURKB (UniProt Q96GD4); test: as above
[15] = target: AURKC (UniProt Q9UQB9); test: as above
[16] = target: BLK (UniProt P51451); test: as above
[17] = target: BMX (UniProt P51813); test: as above
[18] = target: BRAF (UniProt P15056); test: as above
[19] = system: BRAF_V600E; test: as above
[20] = target: BTK (UniProt Q06187); test: as above

| SMILES | kinase-Nluc reporter destabilization hit call [1] | kinase-Nluc reporter destabilization hit call [2] | kinase-Nluc reporter destabilization hit call [3] | kinase-Nluc reporter destabilization hit call [4] | kinase-Nluc reporter destabilization hit call [5] | kinase-Nluc reporter destabilization hit call [6] | kinase-Nluc reporter destabilization hit call [7] | kinase-Nluc reporter destabilization hit call [8] | number of time points [9] | number of time points [10] | number of time points [11] | number of time points [12] | number of time points [13] | number of time points [14] | number of time points [15] | number of time points [16] | number of time points [17] | number of time points [18] | number of time points [19] | number of time points [20] |
| --- | --- | --- | --- | --- | --- | --- | --- | --- | --- | --- | --- | --- | --- | --- | --- | --- | --- | --- | --- | --- |
| CS(=O)(=O)Nc1cc(-c2ccc3ncnc(Nc4ccc(F)c(Cl)c4)c3c2)cnc1Cl (2.5 µM) | inactive: 0 | inactive: 0 | inactive: 0 | inactive: 0 | inactive: 0 | inactive: 0 | inactive: 0 | inactive: 0 | 2 | 0 | 0 | 0 | 0 | 0 | 0 | 0 | 2 | 0 | 2 | 0 |
| CC1(C)C(O[C@@H]2OC[C@@H](O)[C@H](O)[C@H]2O)CC[C@]23CC24CC[C@]2(C)[C@@H]([C@@]5(C)CC[C@@H](C(C)(C)O)O5)[C@H](O)C[C@@]2(C)C4C[C@@H](O[C@@H]2O[C@H](CO)[C@@H](O)[C@H](O)[C@H]2O)C13 (stereo not given in full) [Astragaloside IV] (10 µM) | inactive: 0 | inactive: 0 | inactive: 0 | inactive: 0 | inactive: 0 | inactive: 0 | inactive: 0 | inactive: 0 | 0 | 0 | 0 | 0 | 0 | 0 | 0 | 0 | 0 | 0 | 0 | 0 |
| CNC(=O)c1c(F)cccc1Nc1nc(Nc2cc3c(cc2OC)CCN3C(=O)CN(C)C)nc2[nH]ccc12 (10 µM) | inactive: 0 | inactive: 0 | inactive: 0 | inactive: 0 | inactive: 0 | inactive: 0 | inactive: 0 | inactive: 0 | 0 | 0 | 0 | 0 | 0 | 0 | 0 | 4 | 0 | 0 | 0 | 0 |
| COc1cc2c(cc1OC)CN(S(=O)(=O)c1ccc(OC)c(N3CCN(C(=O)c4ccc(F)cc4C(F)(F)F)CC3)c1)CC2 (10 µM) | inactive: 0 | inactive: 0 | inactive: 0 | inactive: 0 | inactive: 0 | inactive: 0 | inactive: 0 | inactive: 0 | 0 | 0 | 0 | 0 | 0 | 0 | 0 | 0 | 0 | 0 | 0 | 0 |
| Cc1ccccc1-n1c([C@H](C)Nc2nc(N)nc3nc[nH]c23)nc2cccc(C)c2c1=O [CAL-130 (Hydrochloride)] (10 µM) | inactive: 0 | inactive: 0 | inactive: 0 | inactive: 0 | inactive: 0 | inactive: 0 | inactive: 0 | inactive: 0 | 0 | 0 | 0 | 0 | 0 | 0 | 0 | 0 | 0 | 0 | 0 | 0 |
| COc1ccc(-c2ccc3c(N4CCOCC4)nc(N4C[C@@H](C)O[C@@H](C)C4)nc3n2)cc1CO (2.5 µM) | inactive: 0 | inactive: 0 | inactive: 0 | inactive: 0 | inactive: 0 | inactive: 0 | inactive: 0 | inactive: 0 | 0 | 0 | 0 | 0 | 0 | 0 | 0 | 0 | 0 | 0 | 0 | 0 |
| COc1cc(/C=C/C(=O)NCC(O)c2ccc(O)cc2)ccc1O (stereo not given) [N-Feruloyloctopamine] (2.5 µM) | inactive: 0 | inactive: 0 | inactive: 0 | inactive: 0 | inactive: 0 | inactive: 0 | inactive: 0 | inactive: 0 | 0 | 0 | 0 | 0 | 0 | 0 | 0 | 0 | 0 | 0 | 0 | 0 |
| N#CCC1CCN(c2nc(Nc3ccc(N4CCC(O)CC4)cc3)c3c(=O)[nH]ncc3n2)CC1 [Gusacitinib] (10 µM) | inactive: 0 | inactive: 0 | inactive: 0 | inactive: 0 | inactive: 0 | inactive: 0 | inactive: 0 | inactive: 0 | 4 | 0 | 0 | 0 | 0 | 0 | 0 | 0 | 2 | 0 | 0 | 0 |
| NC(=O)c1ccc2[nH]ccc2c1 (10 µM) | inactive: 0 | inactive: 0 | inactive: 0 | inactive: 0 | inactive: 0 | inactive: 0 | inactive: 0 | inactive: 0 | 0 | 0 | 0 | 0 | 0 | 0 | 0 | 0 | 0 | 0 | 0 | 0 |
| C=CC(=O)Nc1ccc(CN2C(=O)N(c3cc(OC)cc(OC)c3)Cc3cnc(Nc4ccc(N5CCN(C)CC5)cc4)nc32)cc1 (2.5 µM) | inactive: 0 | inactive: 0 | inactive: 0 | inactive: 0 | inactive: 0 | inactive: 0 | inactive: 0 | inactive: 0 | 0 | 0 | 0 | 0 | 0 | 0 | 0 | 5 | 0 | 2 | 0 | 0 |
| CN1CCN(c2cccc(Nc3nc4c(-c5ccc(S(C)(=O)=O)cc5)cccn4n3)c2)CC1 (10 µM) | inactive: 0 | inactive: 0 | inactive: 0 | inactive: 0 | inactive: 0 | inactive: 0 | inactive: 0 | inactive: 0 | 0 | 0 | 0 | 0 | 0 | 0 | 0 | 0 | 0 | 0 | 0 | 0 |

Given with tabs: entries from further up.
SMILES	kinase-Nluc reporter destabilization hit call [1]	kinase-Nluc reporter destabilization hit call [2]	kinase-Nluc reporter destabilization hit call [3]	kinase-Nluc reporter destabilization hit call [4]	kinase-Nluc reporter destabilization hit call [5]	kinase-Nluc reporter destabilization hit call [6]	kinase-Nluc reporter destabilization hit call [7]	kinase-Nluc reporter destabilization hit call [8]	number of time points [9]	number of time points [10]	number of time points [11]	number of time points [12]	number of time points [13]	number of time points [14]	number of time points [15]	number of time points [16]	number of time points [17]	number of time points [18]	number of time points [19]	number of time points [20]
COc1cc2c(cc1OC)CN(S(=O)(=O)c1ccc(OC)c(N3CCN(C(=O)c4ccc(F)cc4C(F)(F)F)CC3)c1)CC2 (10 µM)	inactive: 0	inactive: 0	inactive: 0	inactive: 0	inactive: 0	inactive: 0	inactive: 0	inactive: 0	0	0	0	0	0	0	0	0	0	0	0	0
Cc1ccccc1-n1c([C@H](C)Nc2nc(N)nc3nc[nH]c23)nc2cccc(C)c2c1=O [CAL-130 (Hydrochloride)] (10 µM)	inactive: 0	inactive: 0	inactive: 0	inactive: 0	inactive: 0	inactive: 0	inactive: 0	inactive: 0	0	0	0	0	0	0	0	0	0	0	0	0
